Our source for the binding signal values is publication PMC7862700.

Sequences of proteins named here, by UniProt entry; tags and fusion partners are left off. A change or cut given only in a name is not applied to a line headed by its entry.
UniProt Q01892: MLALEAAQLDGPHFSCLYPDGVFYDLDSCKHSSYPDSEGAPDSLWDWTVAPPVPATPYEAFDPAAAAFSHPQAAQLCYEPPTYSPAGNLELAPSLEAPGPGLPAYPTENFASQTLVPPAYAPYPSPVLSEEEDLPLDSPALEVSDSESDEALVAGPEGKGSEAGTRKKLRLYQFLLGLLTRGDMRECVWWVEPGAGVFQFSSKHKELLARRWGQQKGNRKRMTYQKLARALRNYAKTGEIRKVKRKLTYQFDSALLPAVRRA

Only a part is listed here, and it is no random draw. At the low end of the ranking, values are background and their order means little.

For the first experiment, the target named is SPIB (UniProt Q01892). Briefly: DAPPL (digital affinity profiling via proximity ligation, sequencing). The conditions noted are these: 10 mM Tris-HCl pH 7.5, 50 mM NaCl, 1 mM DTT, 4% glycerol, room temperature, 30 min; GST-TFs on glutathione beads, 16-mer random dsDNA library, 0.1% …; high values mean tight binding; double strand, one strand shown; scale: fold enrichment (6-mer frequency, TF over GST control).
GTACTC: the binding signal was 0.96.
Same read-out and setting: in the case of TAAAAT it was 1.2; in that of CCAATC, 1.1.
TTAGGG: the binding signal stood at 1.17.
CCCCGG came in with a binding signal of 1.27.

For another experiment, the target named is T1, ETV2 (UniProt O00321).
T1 sequence: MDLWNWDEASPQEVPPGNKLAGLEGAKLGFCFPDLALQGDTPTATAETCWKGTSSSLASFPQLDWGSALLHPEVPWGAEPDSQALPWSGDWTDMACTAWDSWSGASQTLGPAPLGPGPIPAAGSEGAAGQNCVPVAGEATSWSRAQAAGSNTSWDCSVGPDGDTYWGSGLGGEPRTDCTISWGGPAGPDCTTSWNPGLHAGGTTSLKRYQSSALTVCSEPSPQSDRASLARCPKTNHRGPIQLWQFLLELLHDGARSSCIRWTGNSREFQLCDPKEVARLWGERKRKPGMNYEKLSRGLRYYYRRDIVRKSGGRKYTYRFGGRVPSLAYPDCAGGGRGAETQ
The description is as above. The note with it: 10 mM Tris-HCl pH 7.5, 50 mM NaCl, 1 mM DTT, 4% glycerol, room temperature, 30 min; GST-TFs on glutathione beads, 16-mer random dsDNA library, 0.1% …; high values mean tight binding; double strand, one strand shown; scale: fold enrichment (6-mer frequency, TF over GST control).
GTACTC: the binding signal is 0.88.
Take TAAAAT: the binding signal was found to be 1.34.
Still for that read-out and setting: as for CCAATC, the figure is 1.16; as for TTAGGG, 1.15.
Still for that read-out and setting: in the case of CCCCGG it was 1.24.

Another experiment deals with T2, ETV3L (UniProt Q6ZN32).
T2 sequence: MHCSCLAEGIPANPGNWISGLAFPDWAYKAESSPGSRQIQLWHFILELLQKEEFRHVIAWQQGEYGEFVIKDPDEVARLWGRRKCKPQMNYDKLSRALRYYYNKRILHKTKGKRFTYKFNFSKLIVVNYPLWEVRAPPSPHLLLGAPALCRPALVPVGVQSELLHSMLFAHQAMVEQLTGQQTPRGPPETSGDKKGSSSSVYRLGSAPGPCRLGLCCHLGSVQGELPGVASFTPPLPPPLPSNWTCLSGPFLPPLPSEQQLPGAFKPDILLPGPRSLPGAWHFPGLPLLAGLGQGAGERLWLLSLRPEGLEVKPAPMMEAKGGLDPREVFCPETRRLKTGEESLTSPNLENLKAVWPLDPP
The description is as above. The note with it: 10 mM Tris-HCl pH 7.5, 50 mM NaCl, 1 mM DTT, 4% glycerol, room temperature, 30 min; GST-TFs on glutathione beads, 16-mer random dsDNA library, 0.1% …; high values mean tight binding; double strand, one strand shown; scale: fold enrichment (6-mer frequency, TF over GST control).
Regarding GAACAT, the binding signal came out at 1.01.
The sequence GACCTA had a binding signal of 1.31.
For CACTTC, the binding signal turned out to be 3.63.
On the same count and under the same terms, as for CGATTT, the figure is 1.17; as for AAGCTC, 1.2.
The same measure, in the same setting: in the case of ATGGCC it was 1.32; in that of ACTAGC, 1.16; in that of CGCTAC, 1.17.
Same read-out and setting: in the case of CTCAGA it was 1.06; in that of CGACTC, 1.36; in that of AATGTC, 1.22.
On to TCTAAG, for which the binding signal was found to be 1.17.
Still for that read-out and setting: in the case of TTTATT it was 1.44; in that of ACTTAA, 1.16.
The same measure, in the same setting: in the case of AGCTAA it was 1.05; in that of TTGAAT, 1.01; in that of TTTGGC, 1.23.
In the case of TCGACC, the binding signal turned out to be 1.33.
On the same count and under the same terms, in the case of AACTTC it was 2.51; in that of AATCAT, 1.18; in that of GAAAAG, 1.09.
The same measure, in the same setting: in the case of ATAATT it was 1.4.
Still for that read-out and setting: as for AACAGG, the figure is 1.15.
The sequence ATGTAA showed a binding signal of 1.26.
The same measure, in the same setting: in the case of TGCTAA it was 1.25; in that of ACCTAA, 1.18.
On the same count and under the same terms, in the case of GTTGCA it was 1.19; in that of TACGTT, 1.32.
Same read-out and setting: as for TTTCAG, the figure is 1.31; as for CCTGGT, 1.53; as for CTGTAA, 0.986.
With TAATAA, the binding signal was 1.24.
Still for that read-out and setting: as for ACTCTA, the figure is 1.39.
